Laboratory results as given in patent US9872858B2, “Treatment of degenerations and light-induced damage to the retina” (BIOCODEX, priority 2014, dated 2018).

Tested on: blue light-induced retinal degenerations or damages in rats
Assay: Scotopic electroretinogram (amplitude of wave a) after blue light-induced retinal degeneration
Assay type: in vivo, Sprague-Dawley albino male rats
Conditions: base = before first administration and induction
Procedure: This animal model is particularly representative, in addition to light-induced retinal damage, of age-related macular degeneration (AMD) and retinitis pigmentosa (see e.g Feng et al. (2012) International Journal of Ophthalmology 5:151-157).
72 Sprague-Dawley albino male rats obtained from Janvier were used for the study. When received, the rats were approximately 7 weeks old and weighed 180-200 g,
Induction was performed by exposure during 6 hours to a blue fluorescent light of 400 nm-540 nm wavelength in individual cages. The rats were kept in the dark for 36 hours prior to the induction and 24 hours after the induction, before returning to normal lighting conditions.
A scotopic electroretinogram (ERG) was performed by using the electrophysiological RETI-animal® (Roland Consult) system before the first administration (base) then on days 7 and 14 on both eyes of animals accustomed to the darkness. The animals were anesthetized with an intramuscular injection of a mixture of ketamine/xylazine. 15 minutes before the measurement, 1 drop of Mydriatictum® (0.5% tropicamide) was instilled to induce dilatation of the pupil. The amplitudes of wave a and wave b were measured for each eye and expressed as a percentage of the base amplitudes.
The ERG parameters are: • Gansfeld Q450C • Color: maximum white • Maximum intensity: 2.6 cd.s/m^2 (0 dB); duration: 0.24 ms; number of flashes: 1 • Filter: 50 Hz • Impedance threshold: 90 kΩ
A two-factor ANOVA test was applied to the average amplitudes of the wave a of both eyes for each measurement point. The effect of the products was determined using the Turkey's multiple comparison test; each group was compared to other groups. Differences were considered significant for p values less than 0.05.
Electroretinograms (ERG) allow to measure the amplitude of wave a, which results from the photo-activated hyperpolarization of photoreceptors. Thus, a reduction of the amplitude of wave a is an indicator of a retinal damage or degeneration associated with exposure to blue light.

Compound | Amplitude of wave a (mean ± standard deviation), Base (PBN 50 mg/kg group) | Amplitude of wave a (mean ± standard deviation), Base (EFX 12.5 mg/kg group) | Amplitude of wave a (mean ± standard deviation), Base (EFX 25 mg/kg group) | Amplitude of wave a (mean ± standard deviation), Base (EFX 50 mg/kg group)
CC(C)(C)[N+]([O-])=Cc1ccccc1 [PBN, Phenyl-N-tert-butylnitrone] | 465 ± 67 μV |  |  | 
CCNC1=Nc2ccc(Cl)cc2C(C)(c2ccccc2)O1.Cl (stereo not shown) [EFX, 6-chloro-2-ethylamino-4-methyl-4-phenyl-4H-[3,1]benzoxazine hydrochloride] |  | 465 ± 68 μV | 468 ± 70 μV | 461 ± 82 μV
